Results deposited as PubChem BioAssay AID1508597 (Cure First, 2020).

Test: 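Knock-downs altering ovarian cancer cell survival with or without PARP inhibitor rucaparib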 (primary screen)
Cell system: human ovarian carcinoma lines grown from tumours: OCI-P5x (papillary serous) and OCI-C5x (clear cell)
Reagents: siRNA pool against human genes, 1.25 pmol siRNA per well
Time to read-out: 72 h or 96 h, depending on the cell culture
Conditions: rucaparib 20 µM (about IC30) or vehicle, present until read-out
Rucaparib or vehicle: Vehicle
Cell line: OCI-C5x (clear cell)
Read-out: 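Luminescent ATP-based viability assay read 72 or 96 h after transfection, depending on culture, given as normalised percent viability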
Scale: viability, normalised: higher = more viable cells remaining
Active means: 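a well counts as a hit if its normalised viability is under 80 percent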
Calls: active = viability under 80%; inactive = viability 80% or more
This is a random part of the about 2,100 reagents, under one of the conditions tested. 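Calls flag viability under 80% in either arm, not effects specific to rucaparib; the reference for percent is not stated.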 Some reagents were tested in more than one well and are listed for each. Not stated in the record: the 100% reference.

gene knocked down	technical replicate	viability, normalised (%)	Call
TFAP2A	1	52.7	active
TFAP2A	2	57.3	active
TFAP2A	3	49.3	active
BABAM1	1	68.4	active
BABAM1	1	39.1	active
BABAM1	2	63.4	active
BABAM1	2	62.5	active
BABAM1	3	61.8	active
BABAM1	3	65.6	active
DROSHA	1	38.8	active
DROSHA	2	84	inactive
DROSHA	3	40.6	active
MDC1	1	46.6	active
MDC1	2	51.5	active
MDC1	3	47.9	active
PIM1	1	69.1	active
PIM1	2	52.5	active
PIM1	3	60.3	active
WWC2	1	34.2	active
WWC2	2	38.1	active
WWC2	3	41.8	active
PMS2	1	101	inactive
PMS2	2	110	inactive
PMS2	3	114	inactive
DNER	1	54.1	active
DNER	2	45.3	active
DNER	3	54.6	active
BRIP1	1	66.5	active
BRIP1	1	47.4	active
BRIP1	2	48.1	active
BRIP1	2	66.3	active
BRIP1	3	68.2	active
BRIP1	3	73.6	active
TLK1	1	72.3	active
TLK1	1	58.6	active
TLK1	2	58.5	active
TLK1	2	73	active
TLK1	3	58.1	active
TLK1	3	56.7	active
TNKS2	1	57.1	active
TNKS2	1	25.1	active
TNKS2	2	72.5	active
TNKS2	2	31.8	active
TNKS2	3	29.3	active
TNKS2	3	61.9	active
RAE1	1	37.3	active
RAE1	2	34.5	active
RAE1	3	36.2	active
HDAC8	1	57.3	active
HDAC8	2	64.2	active
HDAC8	3	65.6	active
RPA2	1	41	active
RPA2	2	36.2	active
RPA2	3	35.5	active
PRKY	1	117	inactive
PRKY	2	51.5	active
PRKY	3	42.7	active
LRRK2	1	54.5	active
LRRK2	2	66.4	active
LRRK2	3	49.5	active
PFKFB4	1	57.4	active
PFKFB4	2	69.2	active
PFKFB4	3	48.1	active
CENPV	1	22.5	active
CENPV	2	30	active
CENPV	3	30.1	active
WNT7A	1	56.9	active
WNT7A	2	56.3	active
WNT7A	3	69	active
FEN1	1	69.2	active
FEN1	2	63.1	active
FEN1	3	51.6	active
GRK1	1	84.3	inactive
GRK1	1	50.2	active
GRK1	1	33.7	active
GRK1	2	39.6	active
GRK1	2	46.8	active
GRK1	2	35.9	active
GRK1	3	55.2	active
GRK1	3	67.5	active
GRK1	3	43.4	active

9 entries from above in another layout:
WWC2, technical replicate 3 — viability, normalised (%) = 41.8; Call = active
PMS2, technical replicate 1 — viability, normalised (%) = 101; Call = inactive
PMS2, technical replicate 2 — viability, normalised (%) = 110; Call = inactive
PMS2, technical replicate 3 — viability, normalised (%) = 114; Call = inactive
DNER, technical replicate 1 — viability, normalised (%) = 54.1; Call = active
DNER, technical replicate 2 — viability, normalised (%) = 45.3; Call = active
DNER, technical replicate 3 — viability, normalised (%) = 54.6; Call = active
BRIP1, technical replicate 1 — viability, normalised (%) = 66.5; Call = active
BRIP1, technical replicate 1 — viability, normalised (%) = 47.4; Call = active
